This is one part of the list.
These molecules were tested on T1, CTL2-GFP (C. trachomatis L2/434/Bu, GFP-expressing). Conditions: bulk GFP, single well; 28.5 h, 10 µM; inhibitor.
T1 construct: L2/434/Bu, GFP-expressing
Parameters: species or system HeLa; Intracellular C. trachomatis growth in HeLa cells, bulk GFP fluorescence relative to DMSO

SMILES	% of control remaining
CC(C)Oc1cccc(CNC(=O)c2ccc(C(C)(C)C)[nH]c2=O)c1 [CBK281415]	108.186%
Cc1noc(C)c1NC(=O)c1ccncc1 [CBK200389]	120.78%
CC(CC(=O)N1CCC(c2cc3cccnc3[nH]2)CC1)n1ccnc1 (stereo not drawn) [CBK285028]	102.424%
O=C(O)c1ccc(Cl)c(-c2ccc(/C=N\Nc3ccc([N+](=O)[O-])cn3)o2)c1 [CBK263431]	97.6352%
CC1(COC(=O)N2CCC(OCc3cnc(-c4ccc(S(C)(=O)=O)cc4)cn3)CC2)COC1 [CBK172009]	104.087%
CCn1c2ccccc2c2cc(CN(CCN(C)C)Cc3ccccc3)ccc21 [CBK261924]	104.95%
Cc1ccc2oc(CN3CCn4cnnc4C3)c(C)c2c1 [CBK283075]	91.5339%
CC(C)(C)NC(=O)COc1ccc(CNc2ccc(C(=O)O)c(Cl)c2)cc1 [CBK287230]	124.765%
Cc1ccc2c(c1)nc(CNC(=O)NCCc1nc(C)no1)n2C [CBK305552]	122.828%
CCOc1cc(/C=C/c2nc(O)c([N+](=O)[O-])c(=O)[nH]2)ccc1OCC(N)=O [CBK267337]	162.913%
O=C(O)CC1C(=O)NCCN1Cc1c(F)cccc1Cl (stereo not drawn) [CBK287157]	117.325%
Cc1ccc2c(c1)N(CC(N)=O)C(=O)CO2 [CBK270208]	135.509%
COC1C(O)C(CO)OC1n1cc(F)c(SC)nc1=O (stereo not drawn) [CBK201267]	146.291%
COc1ccc(C)cc1C1(CNC(=O)C2CCC(N)C2)CCOCC1 (stereo not drawn) [CBK304312C]	120.657%
CNC(=S)NCCc1c[nH]c2ccccc12 [CBK264853]	114.561%
Cc1noc(C)c1CC(=O)NCc1ccc(CN2CCCCC2)cc1 [CBK281422]	121.672%
CS(=O)(=O)N(CC(=O)O)c1cccc2ccccc12 [CBK262420]	100%
CC(NC(=O)N(Cc1cccc2ccccc12)C1CCC(N)CC1)c1cccc2ccccc12 (stereo not drawn) [CBK000482C]	54.6899%
NC(CC(=O)O)c1ccc(OCc2ccccc2)cc1 (stereo not drawn) [CBK286999]	140.306%
O=C1c2ccc(Oc3cccc(Oc4ccc5c(c4)C(=O)N(CCO)C5=O)c3)cc2C(=O)N1CCO [CBK261398]	112.612%
COCCOCCCN1CCC2(CC1)NC(=O)Cc1ccc(C)cc12 [CBK040222]	98.3735%
COc1ccccc1-c1nc(C2CCCN(C(=O)NCCc3cccs3)C2)n2ccccc12 (stereo not drawn) [CBK047163]	116.832%
O=C(Nc1cccc(F)c1)C(c1ccccc1)N1CCOCC1 (stereo not drawn) [CBK269191]	123.09%
OCCn1nc(C2CCCC2)nc1CCc1c[nH]c2ccccc12 [CBK307509]	133.776%
OCCNc1nc(Nc2ccc(Cl)cc2)nc(N2CCCCC2)n1 [CBK266638]	161.095%
O=C1NC(=O)C2(CCN(Cc3ccccc3)CC2)N1 [CBK005078]	111.747%

SMILES	% of control remaining
N#CCCNCC1COc2ccccc2O1 (stereo not drawn) [CBK026615]	117.328%
CC(C)NCC(O)COC1CCC(C(C)(C)C)CC1 (stereo not drawn) [CBK029007C]	158.678%
O=C1NC(N2CCCC2)=NOc2nnc(Cl)cc21 [CBK024856]	131.246%
O=S(=O)(Cc1ccc(Cl)cc1)Nc1cccc2[nH]ccc12 [CBK153531]	68.5746%
O=C(NC(C(=O)c1ccccc1)N1CCCCC1)c1ccccc1 (stereo not drawn) [CBK261035]	87.4932%
CC(C)(CNC(=O)Cn1cnc2ccccc21)N1CCCCC1 [CBK281879]	135.158%
COc1ccc(CCN2C(=O)CC(C(=O)O)S/C2=N\c2ccc(Cl)cc2)cc1OC (stereo not drawn) [CBK263286]	107.884%
COc1cc(/C=C(\C#N)c2nc3ccccc3n2C)cc([N+](=O)[O-])c1O [CBK263893]	146.333%
O=C(CC1SCCNC1=O)NCc1ccccc1 (stereo not drawn) [CBK270202]	93.0342%
CC(=O)OC(COc1ccc(F)cc1)Cn1cnc2ccccc21 (stereo not drawn) [CBK266162]	131.507%
CS(=O)(=O)N(CC(=O)N1CCN(C(c2ccccc2)c2ccccc2)CC1)c1cccc(F)c1 [CBK266330]	155.836%
CCc1nn2c(=O)cc(CN3C(=O)NC(C)(c4ccco4)C3=O)nc2s1 (stereo not drawn) [CBK305880]	109.519%
COc1ccc(NS(=O)(=O)c2cccc(Cl)c2C)c(C(=O)NCc2ccccc2)c1 [CBK113953]	141.337%
O=C(Cn1c(=O)n(Cc2ccco2)c2ncccc21)N1CCCCC1 [CBK283862]	140.53%
CCOC(=O)c1c(NC(=O)c2nn3c(C(F)(F)F)cc(-c4cccs4)nc3c2Cl)sc2c1CCCC2 [CBK262539]	115.507%
COC(=O)c1c(NC(=O)c2ccncc2)sc2c1CCC2 [CBK262637]	100%
COc1cccc(C(=O)NNC(=O)c2ccc(F)cc2)c1 [CBK261705]	108.759%
COc1cc(CNC(C)(C)CO)c(Cl)cc1OC(C)C [CBK269542]	128.128%
CC1CCc2nc(NS(=O)(=O)c3ccccc3)sc2C1 (stereo not drawn) [CBK026915]	80.2617%
O=C(NCc1ccccn1)c1ccccc1Nc1cccc(C(F)(F)F)c1 [CBK107252]	116.737%
O=C(Cn1cc(Br)ccc1=O)NC1CCN(Cc2ccccc2)CC1 [CBK305671]	121.08%
FC(F)(F)c1cc(-c2cc(Nc3ccc4[nH]ccc4c3)ncn2)cc(C(F)(F)F)c1 [CBK090855]	106.563%
O=C(NCCCN1CCc2ccccc2C1)C1CC1c1ccco1 (stereo not drawn) [CBK305257]	103.343%
S=C(Nc1ccccc1)c1ccccc1 [CBK005397]	104.24%
CC(=O)Nc1cccc(-c2cnc(Nc3ccc(N4CCOCC4)cc3)c3nccn23)c1 [CBK091235]	170.62%
c1ccc(C2=NN=C(N3CCOCC3)SC2)cc1 [CBK006876G]	79.9391%

Looked up one by one from the entries so far, 2 records:
SMILES	% of control remaining
O=C(NC(C(=O)c1ccccc1)N1CCCCC1)c1ccccc1 (stereo not drawn) [CBK261035]	87.4932%
c1ccc(C2=NN=C(N3CCOCC3)SC2)cc1 [CBK006876G]	79.9391%

(more compounds)

SMILES	% of control remaining
CC(C)C(=O)N[C@H]1CC[C@]2(CC1)CNC(=O)c1ccccc1O2 [CBK281675]	120.362%
CCCn1ccnc1CNc1nc2c(s1)c(C)nn2C [CBK307254]	148.606%
Clc1ccc(OCC2CCN(Cc3c[nH]cn3)CC2)cc1 [CBK281543]	136.697%
COc1ccc2c(c1)C1(CC(=O)N(CC(=O)N(C)C)C1=O)C(=O)N2CCCN(C)S(C)(=O)=O (stereo not drawn) [CBK075889]	88.9375%
Cc1c(OCc2ccccc2)ccc2c1OC1(CCN(C(=O)c3ccccn3)CC1)CC2=O [CBK156441]	107.748%
COc1ccc(F)cc1-c1ccc(CC2(C(=O)NC3CCCCC3)CCOCC2)cc1 [CBK285538]	128.399%
CCc1nc2cc(NC(=O)CCCn3ccnc3C)ccc2n1CC [CBK281609]	109.039%
Cc1ccc2[nH]c(-c3ccc(NCc4cc5ccc(C)cc5[nH]c4=O)cc3)nc2c1 [CBK286156]	117.953%
CN(C)Cc1ccc(C(=O)N2CCc3[nH]c4ccccc4c3C2)cc1 [CBK281847]	152.301%
O=C(Nc1ccc(I)cc1C(=O)NCCN1CCOCC1)c1ccc(Cl)cc1Cl [CBK266157]	132.609%
O=C(O)c1cc(NC(=O)C2CCCCC2)cc(C(=O)O)c1 [CBK286972]	116.027%
Cc1cc(C)nc(NS(=O)(=O)c2ccc(Nc3ncnc(N)c3[N+](=O)[O-])cc2)n1 [CBK267217]	87.1316%
C[C@@H](c1ccccc1)n1c(=O)[nH]c2ncc(-c3ccc(C(=O)NC4CCCC4)cc3)nc21 [CBK064542]	77.9248%
O=C(NC(=S)Nc1cccc2ncccc12)c1ccc(N2CCOCC2)c([N+](=O)[O-])c1 [CBK267608]	109.675%
CN(C)CCCn1cnc2c1c(=O)[nH]c(=O)n2Cc1ccccc1 [CBK291234]	122.775%
Nc1ncc(-c2cccc(OC(F)(F)F)c2)nc1-c1ccc(CCC(=O)O)cc1 [CBK064071]	121.513%
COc1ccc(N2CCN(c3cc(-c4ccc(OC(F)(F)F)cc4)ncn3)CC2)cc1OC [CBK091032]	182.275%
COc1ccc(-c2nc(NC(=O)c3cccc(S(C)(=O)=O)c3)cnc2-c2ccc(F)cc2)cc1 [CBK037110]	65.6662%
Cc1ccccc1CN(CC(=O)NC1CC1)S(=O)(=O)c1ccc(Cl)cc1 [CBK265757]	171.559%
CC(=O)Nc1ccc(CN2CCCC(c3cc4ncccc4[nH]3)C2)cc1 (stereo not drawn) [CBK283402]	132.645%
Cc1cccc(=O)n1CCC(=O)N1CCCCC1CN1CCOCC1 (stereo not drawn) [CBK306528]	87.5161%
CCN(CC(=O)NC(C)C)Cc1nc(-c2cccc(C(F)(F)F)c2)no1 [CBK306039]	146.158%
O=C(CNC(=O)c1ccncc1)N/N=C/c1c(O)ccc2ccccc12 [CBK261378]	74.3552%
CC(C)[C@H](NC(=O)C1CC(=O)N(c2ccc(F)cc2)C1)C(=O)N1CCC(C(=O)O)CC1 (stereo partly drawn) [CBK286669]	131.03%
CCn1c2ccccc2c2cc(CN3CCN(Cc4cccc(F)c4)CC3)ccc21 [CBK263143]	100%
Cc1c(CN(C)CC(=O)Nc2ccc(Br)cc2Cl)cnn1C [CBK304214]	78.3782%

Some of these compounds in order of SMILES length, high to low:
SMILES	% of control remaining
O=C(CNC(=O)c1ccncc1)N/N=C/c1c(O)ccc2ccccc12 [CBK261378]	74.3552%
CC(=O)OC(COc1ccc(F)cc1)Cn1cnc2ccccc21 (stereo not drawn) [CBK266162]	131.507%
c1ccc(C2=NN=C(N3CCOCC3)SC2)cc1 [CBK006876G]	79.9391%

From article PMC12040169 (PLOS Biology, 2025)
